US20230390392A1
Residue numbers refer to the chain shown, from its start. Results are given in words; binding and its absence hold for the method and conditions named. Some results given as binding are weak or reduced against the parent protein; the word gives no strength.

T1: CD70 (UniProt P32970)
T1 sequence (looked up): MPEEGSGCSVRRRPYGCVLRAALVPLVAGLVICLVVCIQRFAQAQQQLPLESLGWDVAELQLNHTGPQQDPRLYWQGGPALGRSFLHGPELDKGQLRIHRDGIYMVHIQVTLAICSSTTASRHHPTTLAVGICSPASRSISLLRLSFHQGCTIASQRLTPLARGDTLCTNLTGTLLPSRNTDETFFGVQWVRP

B1: 58 binder formatted as full IgG1 (antibody, V domains shown)
VH: QVQLVQSGAEVKKPGASVKVSCKASGYTFTSYDINWVRQAPGQGLEWMGVINPSGGGTSYAQKFQGRVTMTRDTSTSTVYMELSSLRSEDTAVYYCARYSGYDWVFDYWGQGTLVTVSS
VL: DIQMTQSPSSLSASVGDRVTITCRASQGIGSWLAWYQQKPGKAPKLLIYAASTLQSGVPSRFSGSGSGTDFTLTISSLQPEDFATYYCQQSYSTPWTFGPGTKVDIK
B2: 71 binder formatted as full IgG1 (antibody, V domains shown)
VH: QVQLVQSGAEVKKPGASVKVSCKASGYTFTSYDINWVRQAPGQGLEWMGVISPSGGGTSYAQKFQGRVTMTRDTSTSTVYMELSSLRSEDTAVYYCARYYGGNPEGWYFDLWGRGTLVTVSS
VL: B1 VL with G28S, S31N, A50D, T53D, Q55E, S56T, S93T, P100Q, D105E

Molecular target: T1, CD70
Assay: flow cytometry, full IgG1 on CD70-expressing cell lines (data not shown)

| Binder | binding |
| --- | --- |
| B1 | binds |
| B2 | binds |
